According to article PMC6368539:
These are yes or no findings as the source states them, for the method shown. For some assays here: In cells and extracts the contact can be indirect. Some entries that bind do so weakly or less than the wild type. Each block holds one molecule with its values, some of them ahead of it.

Protein sequences, listed by entry. Tags and fused reporters are not part of them. Lines headed by an entry give the natural chain unless they say otherwise; changes in a name come on top. Residues count along the entry.
UniProt P08034: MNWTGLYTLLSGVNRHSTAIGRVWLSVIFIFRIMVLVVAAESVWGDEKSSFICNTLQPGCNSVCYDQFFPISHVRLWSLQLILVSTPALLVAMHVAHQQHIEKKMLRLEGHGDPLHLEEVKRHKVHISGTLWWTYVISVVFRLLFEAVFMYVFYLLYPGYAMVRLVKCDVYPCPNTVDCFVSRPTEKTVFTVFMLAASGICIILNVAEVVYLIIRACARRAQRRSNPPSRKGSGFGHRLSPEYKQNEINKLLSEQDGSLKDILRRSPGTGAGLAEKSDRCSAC
UniProt G3I8R9, residues 19-654: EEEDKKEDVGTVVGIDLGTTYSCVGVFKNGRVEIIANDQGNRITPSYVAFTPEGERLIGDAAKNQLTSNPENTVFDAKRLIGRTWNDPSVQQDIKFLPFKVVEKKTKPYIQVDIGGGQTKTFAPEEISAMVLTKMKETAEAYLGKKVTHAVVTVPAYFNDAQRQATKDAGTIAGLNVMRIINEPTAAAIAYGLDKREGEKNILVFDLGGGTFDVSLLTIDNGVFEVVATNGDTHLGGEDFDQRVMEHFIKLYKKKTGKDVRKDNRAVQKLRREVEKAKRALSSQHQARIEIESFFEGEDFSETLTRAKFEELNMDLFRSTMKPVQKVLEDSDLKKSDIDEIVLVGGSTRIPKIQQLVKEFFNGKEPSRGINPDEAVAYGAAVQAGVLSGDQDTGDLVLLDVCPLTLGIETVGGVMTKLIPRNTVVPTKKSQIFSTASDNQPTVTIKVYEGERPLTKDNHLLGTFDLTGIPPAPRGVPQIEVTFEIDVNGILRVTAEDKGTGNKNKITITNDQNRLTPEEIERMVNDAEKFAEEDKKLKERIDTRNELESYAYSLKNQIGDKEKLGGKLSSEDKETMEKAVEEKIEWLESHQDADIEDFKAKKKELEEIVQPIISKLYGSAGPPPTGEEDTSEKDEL
UniProt Q5UCC4, residues 26-262: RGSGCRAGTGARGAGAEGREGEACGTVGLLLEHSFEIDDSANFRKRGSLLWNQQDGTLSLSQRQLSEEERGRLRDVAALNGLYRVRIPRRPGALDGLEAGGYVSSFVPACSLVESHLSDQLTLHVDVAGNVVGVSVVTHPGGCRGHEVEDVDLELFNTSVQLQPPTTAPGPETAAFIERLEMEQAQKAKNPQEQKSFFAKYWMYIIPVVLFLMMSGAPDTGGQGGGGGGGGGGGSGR

What was measured:
[1] = target: connexin 32 wild type, FLAG-tagged (human) (UniProt P08034); experiment: SDS-PAGE and immunoblot (SDS-resistant dimers); Cx32 constructs from transfected HEK293T cells on reducing SDS-PAGE gels; monomer and dimer bands seen by immunoblot
[2] = target: connexin 32 L90H, FLAG-tagged (human) (UniProt P08034); experiment: co-IP; FLAG-tagged Cx32 constructs co-transfected with hamster BiP in HEK293T; anti-FLAG precipitation; lysis in NP40 buffer supplemented with apyrase; washes in NP40 buffer with 400 mM NaCl; immunoblot
[3] = target: connexin 32 L81H, FLAG-tagged (human) (UniProt P08034); experiment: as above
[4] = target: connexin 32 L90H, FLAG-tagged (human) (UniProt P08034); experiment: co-IP; FLAG-tagged Cx32 constructs precipitated from transfected HEK293T cells with anti-FLAG (M2) affinity gel; lysis in 50 mM Tris-HCl pH 7.5, 150 mM NaCl, 1% digitonin; washes with 0.5% digitonin; 4 °C; endogenous partners detected by immunoblot
[5] = target: connexin 32 wild type, FLAG-tagged (human) (UniProt P08034); experiment: as above
[6] = target: connexin 32 L90H, FLAG-tagged (human) (UniProt P08034); experiment: SDS-PAGE and immunoblot (SDS-resistant dimers); Cx32 constructs from transfected HEK293T cells on reducing SDS-PAGE gels; monomer and dimer bands seen by immunoblot
[7] = target: connexin 32 L90H, FLAG-tagged (human) (UniProt P08034); experiment: co-IP; FLAG-tagged Cx32 constructs precipitated from transfected HEK293T cells with anti-FLAG (M2) affinity gel; lysis in 50 mM Tris-HCl pH 7.5, 150 mM NaCl, 1% digitonin; washes with 0.5% digitonin; 4 °C; endogenous partners detected by immunoblot; remark: listed apart in the source
[8] = target: connexin 32 wild type, FLAG-tagged (human) (UniProt P08034); experiment: as above; remark: listed apart in the source

Molecule: connexin 32 wild type, FLAG-tagged (from UniProt P08034 1-283)
- binding [1]: binds

Molecule: hamster BiP (from UniProt G3I8R9 19-654)
- binding [2]: binds
- binding [3]: binds

Molecule: connexin 32 L90H, FLAG-tagged (from UniProt P08034 1-283)
- binding [6]: binds

The next lines start with the values.

- binding [4]: binds
- binding [5]: binds
Molecule: ER-membrane protein complex (EMC) subunit 10 (from UniProt Q5UCC4 26-262)

- binding [7]: binds
- binding [8]: binds
B1: Calnexin (protein, UniProt P27824 21-592)
chain: HDGHDDDVIDIEDDLDDVIEEVEDSKPDTTAPPSSPKVTYKAPVPTGEVYFADSFDRGTLSGWILSKAKKDDTDDEIAKYDGKWEVEEMKESKLPGDKGLVLMSRAKHHAISAKLNKPFLFDTKPLIVQYEVNFQNGIECGGAYVKLLSKTPELNLDQFHDKTPYTIMFGPDKCGEDYKLHFIFRHKNPKTGIYEEKHAKRPDADLKTYFTDKKTHLYTLILNPDNSFEILVDQSVVNSGNLLNDMTPPVNPSREIEDPEDRKPEDWDERPKIPDPEAVKPDDWDEDAPAKIPDEEATKPEGWLDDEPEYVPDPDAEKPEDWDEDMDGEWEAPQIANPRCESAPGCGVWQRPVIDNPNYKGKWKPPMIDNPSYQGIWKPRKIPNPDFFEDLEPFRMTPFSAIGLELWSMTSDIFFDNFIICADRRIVDDWANDGWGLKKAADGAAEPGVVGQMIEAAEERPWLWVVYILTVALPVFLVILFCCSGKKQTSGMEYKKTDAPQPDVKEEEEEKEEEKDKGDEEEEGEEKLEEKQKSDAEEDGGTVSQEEEDRKPKAEEDEILNRSPRNRKPRRE
